Some of the results follow.

Protein sequences, listed by entry. Tags and fused reporters are not part of them.
UniProt Q0JBA9, entry or part of it: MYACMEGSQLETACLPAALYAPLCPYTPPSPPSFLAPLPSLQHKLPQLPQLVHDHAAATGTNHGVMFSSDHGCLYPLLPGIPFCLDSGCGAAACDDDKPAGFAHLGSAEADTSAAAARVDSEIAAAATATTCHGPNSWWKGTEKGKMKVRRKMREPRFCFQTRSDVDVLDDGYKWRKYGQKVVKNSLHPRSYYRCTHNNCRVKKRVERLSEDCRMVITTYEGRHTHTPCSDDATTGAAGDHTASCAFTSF

The target of the assay is OsWRKY34 (Oryza sativa, UniProt Q0JBA9 1-250). Nature of the assay: protein-binding microarray (RPBM); PBS, 2% BSA, 51.3 ng/ul salmon testes DNA, 50 uM zinc acetate, 200 nM TF, 25 C, 1 h; high values mean tight binding. The settings on record: protein: recombinant; tags: N-terminal polyhistidine and DsRed monomer fusion (pET32a); label: CyDye5-dUTP incorporated in the synthesized complementary strand; 3' TTTTT single-stranded linker to array surface; dsDNA, one strand shown. A digest of the protocol:
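Binding signal here means per-feature fluorescence intensity in arbitrary units. The values were read on an Axon 4000B scanner after a custom Agilent array, double-stranded by primer extension with Cy5-dUTP, was incubated with 200 nM protein at 25 °C for 1 h in PBS with 2% BSA, salmon testes DNA and 50 µM zinc acetate, then washed. The proteins were transcription factors with an N-terminal polyhistidine tag and DsRed, expressed in E. coli BL21-CodonPlus and purified on Ni–NTA.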
As for “GTATTGCGCACACACGATAGATCACTTTTTCCAGCACACCCGGAGTCACCTAGTGCAG”, the binding signal was 8910 fluorescence intensity (a.u.). Regarding “ACCTCCTTTTCATACAGCCGGCGTGGCATTTGTGGGCCCACGGAGTCACCTAGTGCAG”, the binding signal is 9220 fluorescence intensity (a.u.). Regarding “ATCATTAACCGCGTCTTATTATTGTATTTATTTAGTATTACGGAGTCACCTAGTGCAG”, the binding signal is 8920 fluorescence intensity (a.u.).

As to “CAACCCATCTCCGCCGCCACCCCACCGTTTCTCTCCCTTGCGGAGTCACCTAGTGCAG”, the binding signal is 12000 fluorescence intensity (a.u.). As for “CTGTCTCTCCTACTGTTCAGCCGTAAGCATCGTGGCCATTCGGAGTCACCTAGTGCAG”, the binding signal is 9180 fluorescence intensity (a.u.).

In the case of “CTTGTCTCTCTTTCTCTTTCTCTCTCTCTCACCTGTTATTCGGAGTCACCTAGTGCAG”, the binding signal is 9740 fluorescence intensity (a.u.). As to “TGAATCAACTCACTCTGGTTTTTGGGTCCGGTTTTCCATACGGAGTCACCTAGTGCAG”, the binding signal is 10200 fluorescence intensity (a.u.). Turning to “CTCTCCGGTCCGTCCCTTCGTTGACTGCCGCTCGGTTTGCCGGAGTCACCTAGTGCAG”, the binding signal was 11400 fluorescence intensity (a.u.). Regarding “CATATATTTTTTTTACACTACATATTTTCTTCGCGCAATTCGGAGTCACCTAGTGCAG”, the binding signal is 8870 fluorescence intensity (a.u.). As to “TTCATGTATTTGCACAATATATTTGGCCGTGTCCTATATTCGGAGTCACCTAGTGCAG”, the binding signal is 9200 fluorescence intensity (a.u.). Then “CAGTATCTGGTTGGTTTCCTTTAATCTTCTCTAAATAAACCGGAGTCACCTAGTGCAG”, with 8040 fluorescence intensity (a.u.); and “TAACAACTTATCCAACTAGTATTACATTGTCTCAACAATTCGGAGTCACCTAGTGCAG”, with 8030 fluorescence intensity (a.u.); and “GCGGTTCTGCAACTGTTTGCTATCATTTTTGTGCCGAGATCGGAGTCACCTAGTGCAG”, with 9280 fluorescence intensity (a.u.). In the case of “CGGCCGCACCTCCCCTCGCCGCCTCGCGCGTCGCAACTTCCGGAGTCACCTAGTGCAG”, the binding signal was 8620 fluorescence intensity (a.u.). On to “AATGTGTCCCGTATCCCGTAGCTAATTAATATGTTTTCACCGGAGTCACCTAGTGCAG”, for which the binding signal is 11100 fluorescence intensity (a.u.).

“CACGCCGTTTTCTGCATGTCACGGCCATCTCGTGCGTGGCCGGAGTCACCTAGTGCAG”: the binding signal was 9950 fluorescence intensity (a.u.). Under “GCAGAAAAGCTTTCAACAACCACTTTGGCTTCTTATTCTACGGAGTCACCTAGTGCAG” stands 9200 fluorescence intensity (a.u.). In the case of “TAGATGTTGGCGTGTTTTTGTCTCGATGTATTATCGTACACGGAGTCACCTAGTGCAG”, the binding signal is 8520 fluorescence intensity (a.u.). For the sequence “GTTAAATTCGAGGGGTTTCTTGTAATTTCGGGGTGGATAACGGAGTCACCTAGTGCAG”, the binding signal was 16500 fluorescence intensity (a.u.). As for “ACTGCTTATGCCATGATCATTGTTTCATTTTCTTAGATTACGGAGTCACCTAGTGCAG”, the binding signal was 8660 fluorescence intensity (a.u.).

With “CATGGCTTATTTGGTTGCACATCCATTTTTCCTACCATCACGGAGTCACCTAGTGCAG”, the binding signal was 8740 fluorescence intensity (a.u.). As for “TGTTTATTTGTTTTCTAAATTTTCCTTATATATTTTGTTGCGGAGTCACCTAGTGCAG”, the binding signal was 9540 fluorescence intensity (a.u.).

Consider “CTCGAGCGGCGGTGGGGATGGGGATGGGGCGGCGGCGACGCGGAGTCACCTAGTGCAG”, for which the binding signal was 17000 fluorescence intensity (a.u.). For “GTCTCGTCTCCTTCCTCGGCTCGGCATTTTCGCGAAATCCCGGAGTCACCTAGTGCAG”, the binding signal was 8350 fluorescence intensity (a.u.).

As for “TCTTTGTGCATATCGAATTTGACATTACTATAAATTTACTCGGAGTCACCTAGTGCAG”, the binding signal was 8350 fluorescence intensity (a.u.). “TCTCTTATCCCTCTTATTTTGTTAATAGATGCTGTCTTCACGGAGTCACCTAGTGCAG”: the binding signal is 8920 fluorescence intensity (a.u.). As for “TTTCCGTGTCCAACGTTTGACTGTCCGTCTTATTAAAAAACGGAGTCACCTAGTGCAG”, the binding signal is 10000 fluorescence intensity (a.u.). In the case of “CAGCGACGACGACCACGACGAGATGGGGATTTGGGGCAGGCGGAGTCACCTAGTGCAG”, the binding signal is 8260 fluorescence intensity (a.u.). As for “TACACTTCCCGTTTCCCTGGGAGGCGGAGGAGGAGGGGAGCGGAGTCACCTAGTGCAG”, the binding signal was 8510 fluorescence intensity (a.u.). Under “CTCCTCCTGCCACGCGTACCTCCTCTTCACTCTCCAGCAGCGGAGTCACCTAGTGCAG” stands 11100 fluorescence intensity (a.u.); under “TACATCGTCCACTTCGACTACTTCCTCTACATCGGCATGTCGGAGTCACCTAGTGCAG”, 8420 fluorescence intensity (a.u.); under “CTATCACCTCCCGCTTCTCCCAGAGCTTTTCGTCCAGATTCGGAGTCACCTAGTGCAG”, 9200 fluorescence intensity (a.u.).

In the case of “TTCACTTTCACCTCGCCGTCTTGGTTGTCTTGCCGTCTTTCGGAGTCACCTAGTGCAG”, the binding signal was 20200 fluorescence intensity (a.u.). With “AAACCCTAGCTCGCAGTCGCACACCCTCCGGCTGCACAGCCGGAGTCACCTAGTGCAG”, the binding signal was 9100 fluorescence intensity (a.u.). Under “CTCACAGTTCAGTTCTAACCCACCAATTGCCATGCCCTTTCGGAGTCACCTAGTGCAG” stands 9340 fluorescence intensity (a.u.); under “TTTTTTTTTCTCAATCGCTTGTTGTCCGATTGAATTTTGTCGGAGTCACCTAGTGCAG”, 9180 fluorescence intensity (a.u.); under “CCCGAGCTTGGATTGATTTTTCTTTTTTCATTTTCCAACGCGGAGTCACCTAGTGCAG”, 8610 fluorescence intensity (a.u.). As for “GCCTATTCGCGCCACCCACATCACGCCCCTACTCGAACATCGGAGTCACCTAGTGCAG”, the binding signal is 8530 fluorescence intensity (a.u.).

In the case of “TTTTTATATACCGGTAAATATCCGCTACCGTATTCGTTCCCGGAGTCACCTAGTGCAG”, the binding signal was 10200 fluorescence intensity (a.u.). With “TTTGGATCTAACGCTCTTTTCATCTTTGACGTTGCCCACGCGGAGTCACCTAGTGCAG”, the binding signal is 9810 fluorescence intensity (a.u.). “TTATCACAGATTCACAGTCCTTTGCCTTCATAAACACCTCCGGAGTCACCTAGTGCAG”: the binding signal is 65500 fluorescence intensity (a.u.). For the sequence “TTGGGAGGGATGGGGCGGTGGTTAGGGGATGAGCGGAGGACGGAGTCACCTAGTGCAG”, the binding signal was 13200 fluorescence intensity (a.u.).
